Assay [1] concerns the target T1, WTAP as used in the IP assays against the family of protein phosphatases (PPPs) (UniProt Q15007).
T1 sequence: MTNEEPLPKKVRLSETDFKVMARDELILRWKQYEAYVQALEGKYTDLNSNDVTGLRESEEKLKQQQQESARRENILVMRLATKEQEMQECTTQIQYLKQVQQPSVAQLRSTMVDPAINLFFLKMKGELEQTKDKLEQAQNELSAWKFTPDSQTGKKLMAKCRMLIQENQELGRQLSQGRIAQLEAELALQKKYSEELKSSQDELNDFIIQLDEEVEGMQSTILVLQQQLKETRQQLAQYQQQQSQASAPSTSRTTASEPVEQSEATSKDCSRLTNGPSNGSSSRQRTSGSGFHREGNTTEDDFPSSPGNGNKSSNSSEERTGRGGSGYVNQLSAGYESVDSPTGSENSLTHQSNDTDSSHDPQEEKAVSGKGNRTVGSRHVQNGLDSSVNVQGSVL
Nature of the assay: co-IP.

For assay [2], the target named is T2, Wilm's tumor-associated protein (WTAP), endogenous in THP-1-derived macrophages (human (endogenous in THP-1)) (UniProt Q15007).
T2 sequence: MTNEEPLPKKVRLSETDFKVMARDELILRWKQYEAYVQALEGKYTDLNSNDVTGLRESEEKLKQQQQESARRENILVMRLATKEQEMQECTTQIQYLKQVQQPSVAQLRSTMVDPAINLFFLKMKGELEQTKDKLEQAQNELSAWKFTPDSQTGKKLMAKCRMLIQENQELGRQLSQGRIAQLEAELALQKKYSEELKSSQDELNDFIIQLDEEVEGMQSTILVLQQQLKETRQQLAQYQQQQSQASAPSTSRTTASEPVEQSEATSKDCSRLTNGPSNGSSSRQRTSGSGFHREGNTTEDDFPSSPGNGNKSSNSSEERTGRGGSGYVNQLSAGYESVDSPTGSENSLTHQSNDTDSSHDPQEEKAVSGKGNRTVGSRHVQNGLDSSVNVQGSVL
The assay can be described thus: co-IP.

These are yes or no findings as the source states them, for the method shown. In cells and extracts the contact can be indirect. Some binding calls cover weakened binding; strength is not graded here.

B1: PPP4 as used in the IP assays of WTAP against the family of protein phosphatases (PPPs) (enzyme, UniProt P60510 1-307)
chain: MAEISDLDRQIEQLRRCELIKESEVKALCAKAREILVEESNVQRVDSPVTVCGDIHGQFYDLKELFRVGGDVPETNYLFMGDFVDRGFYSVETFLLLLALKVRYPDRITLIRGNHESRQITQVYGFYDECLRKYGSVTVWRYCTEIFDYLSLSAIIDGKIFCVHGGLSPSIQTLDQIRTIDRKQEVPHDGPMCDLLWSDPEDTTGWGVSPRGAGYLFGSDVVAQFNAANDIDMICRAHQLVMEGYKWHFNETVLTVWSAPNYCYRCGNVAAILELDEHLQKDFIIFEAAPQETRGIPSKKPVADYFL
With B1, the binding entry in assay [1] is given as “binds”.

B2: PPP4, endogenous in THP-1-derived macrophages (enzyme, UniProt P60510 1-307)
chain: MAEISDLDRQIEQLRRCELIKESEVKALCAKAREILVEESNVQRVDSPVTVCGDIHGQFYDLKELFRVGGDVPETNYLFMGDFVDRGFYSVETFLLLLALKVRYPDRITLIRGNHESRQITQVYGFYDECLRKYGSVTVWRYCTEIFDYLSLSAIIDGKIFCVHGGLSPSIQTLDQIRTIDRKQEVPHDGPMCDLLWSDPEDTTGWGVSPRGAGYLFGSDVVAQFNAANDIDMICRAHQLVMEGYKWHFNETVLTVWSAPNYCYRCGNVAAILELDEHLQKDFIIFEAAPQETRGIPSKKPVADYFL
Consider B2, for which, in assay [2], the binding result is reported as “binds”.

Source of the values: doi:10.1101/2024.07.18.604157.
